The supplement of paper PMC6411743
± gives the standard deviation of the averaged measurements. This is one part of the list.

Amino acid sequences for entries named in this document (tags omitted). A change or cut given only in a name is not applied to a line headed by its entry.
UniProt P56159: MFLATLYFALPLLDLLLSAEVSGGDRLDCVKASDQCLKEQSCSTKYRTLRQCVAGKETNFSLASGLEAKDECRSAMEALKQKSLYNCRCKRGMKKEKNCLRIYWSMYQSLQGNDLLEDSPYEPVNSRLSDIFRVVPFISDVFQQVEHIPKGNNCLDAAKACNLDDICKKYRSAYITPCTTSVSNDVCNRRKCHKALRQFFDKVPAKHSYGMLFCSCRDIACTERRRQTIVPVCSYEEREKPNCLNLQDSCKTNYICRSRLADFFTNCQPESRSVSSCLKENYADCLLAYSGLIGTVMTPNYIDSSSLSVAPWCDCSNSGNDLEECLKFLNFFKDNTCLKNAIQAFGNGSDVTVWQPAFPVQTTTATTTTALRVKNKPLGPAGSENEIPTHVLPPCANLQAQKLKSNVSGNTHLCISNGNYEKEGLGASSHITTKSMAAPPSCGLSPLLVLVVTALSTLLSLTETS
UniProt Q00266: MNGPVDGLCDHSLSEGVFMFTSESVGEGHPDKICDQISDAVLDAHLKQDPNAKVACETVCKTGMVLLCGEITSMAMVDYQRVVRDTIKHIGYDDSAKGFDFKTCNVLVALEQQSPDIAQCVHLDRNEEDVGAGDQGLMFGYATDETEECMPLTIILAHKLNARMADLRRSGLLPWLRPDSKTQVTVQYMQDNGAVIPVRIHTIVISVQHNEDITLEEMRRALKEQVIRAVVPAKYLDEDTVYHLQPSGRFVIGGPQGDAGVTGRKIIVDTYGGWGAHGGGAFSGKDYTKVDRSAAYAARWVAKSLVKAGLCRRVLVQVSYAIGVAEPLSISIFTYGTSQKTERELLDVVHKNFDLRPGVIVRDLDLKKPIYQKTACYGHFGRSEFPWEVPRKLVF
UniProt P53621: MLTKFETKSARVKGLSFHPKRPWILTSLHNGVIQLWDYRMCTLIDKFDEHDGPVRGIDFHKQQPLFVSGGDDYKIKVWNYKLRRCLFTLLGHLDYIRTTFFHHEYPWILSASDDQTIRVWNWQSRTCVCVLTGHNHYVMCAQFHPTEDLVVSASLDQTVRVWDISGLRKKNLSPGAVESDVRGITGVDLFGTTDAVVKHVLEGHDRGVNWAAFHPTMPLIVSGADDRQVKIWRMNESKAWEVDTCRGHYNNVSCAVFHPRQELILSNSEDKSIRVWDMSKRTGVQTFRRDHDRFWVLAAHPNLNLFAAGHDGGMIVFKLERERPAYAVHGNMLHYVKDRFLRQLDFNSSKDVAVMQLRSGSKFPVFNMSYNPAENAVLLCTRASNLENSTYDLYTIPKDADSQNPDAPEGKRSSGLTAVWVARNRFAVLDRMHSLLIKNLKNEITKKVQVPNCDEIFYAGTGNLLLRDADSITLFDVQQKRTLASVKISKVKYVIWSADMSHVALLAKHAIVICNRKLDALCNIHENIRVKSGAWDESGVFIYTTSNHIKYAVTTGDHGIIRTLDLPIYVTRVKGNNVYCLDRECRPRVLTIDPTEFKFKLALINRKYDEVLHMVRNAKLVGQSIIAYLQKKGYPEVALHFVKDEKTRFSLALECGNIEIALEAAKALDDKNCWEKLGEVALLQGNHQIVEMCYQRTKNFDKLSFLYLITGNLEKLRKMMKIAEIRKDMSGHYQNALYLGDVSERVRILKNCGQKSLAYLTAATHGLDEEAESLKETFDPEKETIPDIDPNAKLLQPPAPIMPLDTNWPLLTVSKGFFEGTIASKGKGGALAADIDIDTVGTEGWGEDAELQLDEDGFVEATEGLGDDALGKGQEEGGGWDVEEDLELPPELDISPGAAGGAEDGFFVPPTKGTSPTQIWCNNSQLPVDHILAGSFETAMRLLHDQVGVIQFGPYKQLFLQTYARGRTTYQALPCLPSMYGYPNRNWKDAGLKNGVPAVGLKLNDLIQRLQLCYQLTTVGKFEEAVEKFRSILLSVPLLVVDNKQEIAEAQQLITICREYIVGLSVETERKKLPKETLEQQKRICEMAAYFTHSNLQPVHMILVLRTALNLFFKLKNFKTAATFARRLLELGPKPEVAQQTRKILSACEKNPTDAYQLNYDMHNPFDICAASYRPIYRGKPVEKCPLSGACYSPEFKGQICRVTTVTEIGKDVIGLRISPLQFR
UniProt P53367: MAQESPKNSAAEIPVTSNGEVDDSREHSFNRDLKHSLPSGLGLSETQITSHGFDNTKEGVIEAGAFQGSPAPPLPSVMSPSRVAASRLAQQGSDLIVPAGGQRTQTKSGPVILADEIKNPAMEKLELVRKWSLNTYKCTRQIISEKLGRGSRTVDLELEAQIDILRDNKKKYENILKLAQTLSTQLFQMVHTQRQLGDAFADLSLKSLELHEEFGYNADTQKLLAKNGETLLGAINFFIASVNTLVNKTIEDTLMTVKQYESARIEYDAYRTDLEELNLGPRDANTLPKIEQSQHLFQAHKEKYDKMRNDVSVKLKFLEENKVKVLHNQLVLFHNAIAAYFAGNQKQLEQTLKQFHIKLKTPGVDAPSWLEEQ
UniProt Q00403, whole entry: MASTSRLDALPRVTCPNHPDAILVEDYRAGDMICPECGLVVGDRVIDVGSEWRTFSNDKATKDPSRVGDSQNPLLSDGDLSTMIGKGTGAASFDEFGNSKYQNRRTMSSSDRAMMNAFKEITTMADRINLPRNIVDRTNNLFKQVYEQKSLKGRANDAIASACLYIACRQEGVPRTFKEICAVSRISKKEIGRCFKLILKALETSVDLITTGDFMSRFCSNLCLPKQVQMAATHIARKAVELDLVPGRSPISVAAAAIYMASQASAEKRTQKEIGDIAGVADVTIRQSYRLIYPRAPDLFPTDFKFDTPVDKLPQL
UniProt P53602: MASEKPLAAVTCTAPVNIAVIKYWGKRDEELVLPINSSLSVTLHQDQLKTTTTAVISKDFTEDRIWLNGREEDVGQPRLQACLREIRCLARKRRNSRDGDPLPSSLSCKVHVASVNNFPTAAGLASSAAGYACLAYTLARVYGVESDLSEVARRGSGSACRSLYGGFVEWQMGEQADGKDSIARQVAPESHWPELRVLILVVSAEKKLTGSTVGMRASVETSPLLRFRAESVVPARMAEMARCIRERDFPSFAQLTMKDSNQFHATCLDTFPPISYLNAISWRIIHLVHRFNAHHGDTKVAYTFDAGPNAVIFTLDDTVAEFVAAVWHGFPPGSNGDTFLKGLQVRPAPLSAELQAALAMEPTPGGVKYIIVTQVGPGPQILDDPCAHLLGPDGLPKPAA
UniProt P60520, whole entry: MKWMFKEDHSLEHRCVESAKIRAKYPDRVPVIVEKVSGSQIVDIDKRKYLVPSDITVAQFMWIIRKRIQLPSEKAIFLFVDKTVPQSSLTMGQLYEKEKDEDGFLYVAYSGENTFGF
UniProt P52732: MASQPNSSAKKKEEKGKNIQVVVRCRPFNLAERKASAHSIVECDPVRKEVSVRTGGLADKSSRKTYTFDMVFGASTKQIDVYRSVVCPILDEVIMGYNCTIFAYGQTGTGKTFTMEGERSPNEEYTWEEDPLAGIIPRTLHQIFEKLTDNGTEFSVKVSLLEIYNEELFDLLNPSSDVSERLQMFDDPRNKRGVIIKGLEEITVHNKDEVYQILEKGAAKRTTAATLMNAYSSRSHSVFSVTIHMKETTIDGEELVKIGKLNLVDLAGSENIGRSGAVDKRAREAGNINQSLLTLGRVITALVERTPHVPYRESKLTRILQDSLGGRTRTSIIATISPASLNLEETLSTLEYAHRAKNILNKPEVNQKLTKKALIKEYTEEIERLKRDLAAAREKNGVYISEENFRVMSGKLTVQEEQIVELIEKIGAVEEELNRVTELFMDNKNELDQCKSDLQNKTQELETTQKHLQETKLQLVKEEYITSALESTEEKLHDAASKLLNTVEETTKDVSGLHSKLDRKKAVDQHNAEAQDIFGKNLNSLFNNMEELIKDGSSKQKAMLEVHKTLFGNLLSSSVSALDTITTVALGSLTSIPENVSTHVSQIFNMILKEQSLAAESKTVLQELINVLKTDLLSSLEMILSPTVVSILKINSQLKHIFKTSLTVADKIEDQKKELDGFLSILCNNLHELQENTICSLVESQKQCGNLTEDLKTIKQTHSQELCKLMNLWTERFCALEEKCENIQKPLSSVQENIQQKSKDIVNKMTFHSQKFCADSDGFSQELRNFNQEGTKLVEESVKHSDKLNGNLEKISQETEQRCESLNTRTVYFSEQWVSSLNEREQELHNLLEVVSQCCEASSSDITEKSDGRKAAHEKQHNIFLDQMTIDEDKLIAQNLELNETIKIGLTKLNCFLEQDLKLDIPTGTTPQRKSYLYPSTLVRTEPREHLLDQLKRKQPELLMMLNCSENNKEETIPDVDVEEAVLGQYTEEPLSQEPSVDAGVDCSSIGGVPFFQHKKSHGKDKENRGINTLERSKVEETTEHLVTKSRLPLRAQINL
UniProt P50749: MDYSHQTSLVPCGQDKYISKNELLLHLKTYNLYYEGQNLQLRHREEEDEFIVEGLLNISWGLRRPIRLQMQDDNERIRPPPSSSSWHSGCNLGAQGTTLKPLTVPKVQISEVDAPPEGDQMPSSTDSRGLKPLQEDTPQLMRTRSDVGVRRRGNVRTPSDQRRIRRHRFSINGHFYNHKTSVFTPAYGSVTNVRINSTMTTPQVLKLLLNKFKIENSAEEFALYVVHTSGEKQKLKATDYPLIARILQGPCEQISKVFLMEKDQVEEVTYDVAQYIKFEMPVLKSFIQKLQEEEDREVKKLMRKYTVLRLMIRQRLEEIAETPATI
UniProt P52306: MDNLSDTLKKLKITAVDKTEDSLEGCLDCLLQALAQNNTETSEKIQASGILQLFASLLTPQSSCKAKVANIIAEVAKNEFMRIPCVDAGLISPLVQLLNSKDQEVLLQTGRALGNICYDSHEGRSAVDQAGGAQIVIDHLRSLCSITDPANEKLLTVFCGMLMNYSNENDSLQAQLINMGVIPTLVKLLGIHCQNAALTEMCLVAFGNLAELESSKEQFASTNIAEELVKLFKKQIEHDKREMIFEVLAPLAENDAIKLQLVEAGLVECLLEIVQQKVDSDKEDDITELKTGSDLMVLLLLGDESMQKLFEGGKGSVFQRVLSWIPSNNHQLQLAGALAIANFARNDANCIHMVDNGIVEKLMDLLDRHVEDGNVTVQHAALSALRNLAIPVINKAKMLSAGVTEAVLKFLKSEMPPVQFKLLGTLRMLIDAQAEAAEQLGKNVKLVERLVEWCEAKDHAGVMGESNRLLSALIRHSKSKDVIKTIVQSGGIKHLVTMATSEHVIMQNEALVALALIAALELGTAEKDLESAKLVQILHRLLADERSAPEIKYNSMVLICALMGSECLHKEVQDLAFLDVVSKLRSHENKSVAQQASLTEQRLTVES
UniProt P61968: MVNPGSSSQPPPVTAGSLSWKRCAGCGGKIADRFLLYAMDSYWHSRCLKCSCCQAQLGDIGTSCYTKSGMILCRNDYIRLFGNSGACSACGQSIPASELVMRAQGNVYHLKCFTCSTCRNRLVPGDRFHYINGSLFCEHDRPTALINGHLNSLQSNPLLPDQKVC
UniProt P60891: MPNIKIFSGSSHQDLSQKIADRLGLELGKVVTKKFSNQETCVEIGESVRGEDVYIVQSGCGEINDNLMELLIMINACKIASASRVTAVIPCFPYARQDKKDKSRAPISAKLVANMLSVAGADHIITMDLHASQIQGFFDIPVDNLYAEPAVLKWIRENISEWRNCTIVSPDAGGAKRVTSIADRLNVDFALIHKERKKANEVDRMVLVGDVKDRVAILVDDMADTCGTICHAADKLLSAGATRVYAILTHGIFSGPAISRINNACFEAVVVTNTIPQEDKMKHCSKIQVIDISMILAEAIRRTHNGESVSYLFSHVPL
UniProt P63279, whole entry: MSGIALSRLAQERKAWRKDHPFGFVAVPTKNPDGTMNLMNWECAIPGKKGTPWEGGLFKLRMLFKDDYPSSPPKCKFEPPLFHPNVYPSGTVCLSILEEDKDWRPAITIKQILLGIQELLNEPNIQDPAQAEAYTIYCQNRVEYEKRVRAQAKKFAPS
UniProt P61024, whole entry: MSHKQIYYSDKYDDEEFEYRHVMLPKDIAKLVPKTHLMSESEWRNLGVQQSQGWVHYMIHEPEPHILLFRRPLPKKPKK
UniProt P54687: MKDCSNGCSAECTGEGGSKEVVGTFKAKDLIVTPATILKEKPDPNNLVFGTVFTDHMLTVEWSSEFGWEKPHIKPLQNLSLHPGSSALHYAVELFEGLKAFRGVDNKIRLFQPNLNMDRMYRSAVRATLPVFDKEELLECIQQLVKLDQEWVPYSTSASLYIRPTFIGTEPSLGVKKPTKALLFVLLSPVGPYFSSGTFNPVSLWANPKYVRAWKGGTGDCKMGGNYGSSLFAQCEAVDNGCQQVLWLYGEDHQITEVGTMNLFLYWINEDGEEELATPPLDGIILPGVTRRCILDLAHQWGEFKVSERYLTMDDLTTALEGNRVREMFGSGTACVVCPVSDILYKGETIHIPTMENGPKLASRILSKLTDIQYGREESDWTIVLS
UniProt P61006: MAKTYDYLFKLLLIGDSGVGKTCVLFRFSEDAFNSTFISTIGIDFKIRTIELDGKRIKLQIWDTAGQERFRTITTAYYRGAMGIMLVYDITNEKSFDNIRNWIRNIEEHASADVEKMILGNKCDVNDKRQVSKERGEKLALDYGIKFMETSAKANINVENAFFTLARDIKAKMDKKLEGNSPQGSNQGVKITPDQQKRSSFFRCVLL

compound: Nc1nc2c(ncn2[C@@H]2O[C@H](COP(=O)(O)OP(=O)(O)OP(=O)(O)O)[C@@H](O)[C@H]2O)c(=O)[nH]1 [guanosine triphosphate]; assay: NP40-soluble protein abundance relative to vehicle (solubility fold change) (ratio); higher = more soluble protein in presence of GTP; conditions: concentration: 0.1mM
Outline: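 Each value is a fold change relative to the detergent-processed vehicle, calculated per replicate from vsn-normalised intensities. Jurkat crude lysate received eight concentrations (0.1 to 10 mM) for 10 min at room temperature and 3 min at 37 °C, then was solubilised in 0.8% NP40 with benzonase (60 min, 4 °C). The ultracentrifuged supernatant was TMT-labelled and run by LC-MS/MS in three independent experiments.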

For UniProt P56159 and related entries, which NP40-soluble protein abundance is on record?
The NP40-soluble protein abundance was 0.981 ± 0.067.

How did the NP40-soluble protein abundance turn out when MAT1A (UniProt Q00266) was run?
Its NP40-soluble protein abundance is 1.07 ± 0.034.

UniProt P53621 and related entries was tested. Which NP40-soluble protein abundance did it give?
Its NP40-soluble protein abundance is 1.04 ± 0.039.

How did the NP40-soluble protein abundance turn out when RPL7A (UniProt P62424) was run?
The NP40-soluble protein abundance was 0.939 ± 0.014.

Which NP40-soluble protein abundance does the source give for KPNA2 (UniProt P52292) here?
Its NP40-soluble protein abundance is 0.994 ± 0.025.

How did the NP40-soluble protein abundance turn out when UniProt P53367 and related entries was run?
Its NP40-soluble protein abundance is 1.04 ± 0.057.

GTF2B (UniProt Q00403) was tested. Which NP40-soluble protein abundance did it give?
The NP40-soluble protein abundance was 1.03 ± 0.027.

MVD (UniProt P53602) was tested. Which NP40-soluble protein abundance did it give?
The NP40-soluble protein abundance was 0.989 ± 0.049.

Which NP40-soluble protein abundance does the source give for UniProt P60520 here?
Its NP40-soluble protein abundance is 0.9927 ± 0.0026.

For STAT5B (UniProt P51692), which NP40-soluble protein abundance is on record?
The NP40-soluble protein abundance was 1.02 ± 0.027.

For KIF11 (UniProt P52732), which NP40-soluble protein abundance is on record?
The NP40-soluble protein abundance was 0.983 ± 0.022.

With PSMD7 (UniProt P51665) as the target, how does the NP40-soluble protein abundance read?
Its NP40-soluble protein abundance is 0.976 ± 0.028.

With RASSF2 (UniProt P50749) as the target, how does the NP40-soluble protein abundance read?
Its NP40-soluble protein abundance is 1.04 ± 0.054.

How did the NP40-soluble protein abundance turn out when CAPZA1 (UniProt P52907) was run?
The NP40-soluble protein abundance was 0.915 ± 0.084.

UniProt P52306 and related entries was tested. Which NP40-soluble protein abundance did it give?
Its NP40-soluble protein abundance is 0.996 ± 0.017.

How did the NP40-soluble protein abundance turn out when UniProt P61978-2|P61978-3|Q5T6W2 was run?
Its NP40-soluble protein abundance is 0.94 ± 0.032.

How did the NP40-soluble protein abundance turn out when LMO4 (UniProt P61968) was run?
The NP40-soluble protein abundance was 0.979 ± 0.11.

Which NP40-soluble protein abundance does the source give for UniProt P55039 and related entries here?
Its NP40-soluble protein abundance is 1.11 ± 0.039.

With UniProt P60891 as the target, how does the NP40-soluble protein abundance read?
The NP40-soluble protein abundance was 1.03 ± 0.072.

UniProt P63279 and related entries was tested. Which NP40-soluble protein abundance did it give?
Its NP40-soluble protein abundance is 0.912 ± 0.056.

Which NP40-soluble protein abundance does the source give for UniProt P61024 and related entries here?
The NP40-soluble protein abundance was 0.968 ± 0.0044.

For UniProt P50750 and related entries, which NP40-soluble protein abundance is on record?
The NP40-soluble protein abundance was 1.07 ± 0.027.

For UniProt P54687 and related entries, which NP40-soluble protein abundance is on record?
The NP40-soluble protein abundance was 1.01 ± 0.051.

How did the NP40-soluble protein abundance turn out when UniProt P56270-2 was run?
The NP40-soluble protein abundance was 0.94 ± 0.017.

Which NP40-soluble protein abundance does the source give for UniProt P63244 and related entries here?
The NP40-soluble protein abundance was 0.997 ± 0.049.

With RAB8A (UniProt P61006) as the target, how does the NP40-soluble protein abundance read?
Its NP40-soluble protein abundance is 0.928 ± 0.03.

With UniProt P78346 and related entries as the target, how does the NP40-soluble protein abundance read?
The NP40-soluble protein abundance was 1.13 ± 0.14.
